Among the data in the supplement of paper PMC10849652 are log2 fold change values, retold here.

Amino acid sequences for entries named in this document (tags omitted). A change or cut given only in a name is not applied to a line headed by its entry.
UniProt Q8IVJ1: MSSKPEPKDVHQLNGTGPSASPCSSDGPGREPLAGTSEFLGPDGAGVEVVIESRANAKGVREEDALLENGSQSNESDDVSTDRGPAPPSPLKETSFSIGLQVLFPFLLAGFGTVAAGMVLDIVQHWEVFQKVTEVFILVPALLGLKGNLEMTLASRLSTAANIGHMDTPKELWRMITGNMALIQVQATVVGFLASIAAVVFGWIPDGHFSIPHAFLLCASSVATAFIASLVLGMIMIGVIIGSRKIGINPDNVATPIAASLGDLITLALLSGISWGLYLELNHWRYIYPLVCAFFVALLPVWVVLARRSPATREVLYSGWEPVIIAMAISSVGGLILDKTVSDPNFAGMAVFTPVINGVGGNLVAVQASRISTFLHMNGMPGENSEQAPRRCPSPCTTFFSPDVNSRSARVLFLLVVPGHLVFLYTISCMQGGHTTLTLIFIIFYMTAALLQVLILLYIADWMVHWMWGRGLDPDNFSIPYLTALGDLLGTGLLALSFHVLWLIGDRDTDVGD
UniProt Q9Y2P4: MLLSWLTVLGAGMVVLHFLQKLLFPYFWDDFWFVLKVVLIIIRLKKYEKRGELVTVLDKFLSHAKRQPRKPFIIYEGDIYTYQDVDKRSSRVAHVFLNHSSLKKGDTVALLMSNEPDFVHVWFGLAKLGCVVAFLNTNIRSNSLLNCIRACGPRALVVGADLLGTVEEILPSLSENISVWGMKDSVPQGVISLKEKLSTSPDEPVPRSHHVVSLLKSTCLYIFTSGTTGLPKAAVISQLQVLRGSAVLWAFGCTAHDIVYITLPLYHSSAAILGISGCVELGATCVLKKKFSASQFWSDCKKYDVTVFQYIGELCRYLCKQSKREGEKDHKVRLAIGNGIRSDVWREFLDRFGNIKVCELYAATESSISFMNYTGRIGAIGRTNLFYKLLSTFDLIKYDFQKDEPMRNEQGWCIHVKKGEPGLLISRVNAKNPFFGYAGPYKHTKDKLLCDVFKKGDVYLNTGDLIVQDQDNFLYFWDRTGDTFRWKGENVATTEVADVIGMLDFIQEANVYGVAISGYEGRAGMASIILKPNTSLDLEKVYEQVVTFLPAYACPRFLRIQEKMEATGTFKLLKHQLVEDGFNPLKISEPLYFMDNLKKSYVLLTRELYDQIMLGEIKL
UniProt Q9UGH3: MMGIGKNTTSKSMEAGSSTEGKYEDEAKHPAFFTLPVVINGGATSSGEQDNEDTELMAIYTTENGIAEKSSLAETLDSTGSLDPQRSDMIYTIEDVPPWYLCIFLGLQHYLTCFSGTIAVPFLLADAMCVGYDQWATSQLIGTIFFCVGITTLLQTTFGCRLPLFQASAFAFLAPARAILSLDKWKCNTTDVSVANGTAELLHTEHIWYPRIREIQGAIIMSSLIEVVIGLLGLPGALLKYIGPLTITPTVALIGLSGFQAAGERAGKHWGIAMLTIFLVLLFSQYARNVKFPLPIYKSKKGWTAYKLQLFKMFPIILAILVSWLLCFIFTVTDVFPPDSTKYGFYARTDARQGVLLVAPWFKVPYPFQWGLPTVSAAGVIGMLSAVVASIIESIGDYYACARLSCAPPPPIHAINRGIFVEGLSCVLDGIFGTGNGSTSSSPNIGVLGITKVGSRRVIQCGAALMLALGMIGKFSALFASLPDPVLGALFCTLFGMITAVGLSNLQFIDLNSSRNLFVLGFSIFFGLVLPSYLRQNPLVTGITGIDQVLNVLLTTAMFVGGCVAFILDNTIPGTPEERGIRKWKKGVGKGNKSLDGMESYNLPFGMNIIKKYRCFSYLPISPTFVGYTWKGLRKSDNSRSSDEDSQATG
UniProt Q8N8R3: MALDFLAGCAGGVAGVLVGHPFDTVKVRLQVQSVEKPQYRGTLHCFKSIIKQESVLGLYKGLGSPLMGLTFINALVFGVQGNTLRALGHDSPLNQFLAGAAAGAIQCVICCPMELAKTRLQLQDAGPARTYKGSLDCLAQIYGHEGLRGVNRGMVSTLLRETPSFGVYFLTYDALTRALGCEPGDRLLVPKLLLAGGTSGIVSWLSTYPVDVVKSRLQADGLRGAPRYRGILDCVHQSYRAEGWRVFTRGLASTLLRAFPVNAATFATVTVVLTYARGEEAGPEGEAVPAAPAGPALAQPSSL
UniProt Q9NTN3, whole entry, looked up: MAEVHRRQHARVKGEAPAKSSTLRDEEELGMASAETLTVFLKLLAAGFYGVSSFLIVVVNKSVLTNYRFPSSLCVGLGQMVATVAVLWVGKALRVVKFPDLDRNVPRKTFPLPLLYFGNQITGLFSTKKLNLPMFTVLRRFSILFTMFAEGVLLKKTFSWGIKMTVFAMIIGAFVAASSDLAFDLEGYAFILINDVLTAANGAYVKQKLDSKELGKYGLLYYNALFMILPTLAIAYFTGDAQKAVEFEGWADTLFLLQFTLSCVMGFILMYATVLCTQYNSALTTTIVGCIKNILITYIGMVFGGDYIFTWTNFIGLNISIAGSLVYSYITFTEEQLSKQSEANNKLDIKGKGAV
UniProt Q7Z2H8: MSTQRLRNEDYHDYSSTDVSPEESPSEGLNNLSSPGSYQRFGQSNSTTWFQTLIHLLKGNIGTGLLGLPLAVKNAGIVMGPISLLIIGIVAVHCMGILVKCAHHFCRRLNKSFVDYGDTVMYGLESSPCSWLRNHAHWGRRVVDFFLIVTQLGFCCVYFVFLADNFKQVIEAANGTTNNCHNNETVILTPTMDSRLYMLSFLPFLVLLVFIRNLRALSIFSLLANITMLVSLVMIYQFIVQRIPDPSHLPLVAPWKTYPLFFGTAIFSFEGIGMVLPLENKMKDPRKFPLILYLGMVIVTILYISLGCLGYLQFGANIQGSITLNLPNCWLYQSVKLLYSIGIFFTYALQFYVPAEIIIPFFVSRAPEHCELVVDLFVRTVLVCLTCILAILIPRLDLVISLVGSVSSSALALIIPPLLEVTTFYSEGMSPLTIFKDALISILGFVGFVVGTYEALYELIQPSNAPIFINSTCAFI
UniProt Q9BS91: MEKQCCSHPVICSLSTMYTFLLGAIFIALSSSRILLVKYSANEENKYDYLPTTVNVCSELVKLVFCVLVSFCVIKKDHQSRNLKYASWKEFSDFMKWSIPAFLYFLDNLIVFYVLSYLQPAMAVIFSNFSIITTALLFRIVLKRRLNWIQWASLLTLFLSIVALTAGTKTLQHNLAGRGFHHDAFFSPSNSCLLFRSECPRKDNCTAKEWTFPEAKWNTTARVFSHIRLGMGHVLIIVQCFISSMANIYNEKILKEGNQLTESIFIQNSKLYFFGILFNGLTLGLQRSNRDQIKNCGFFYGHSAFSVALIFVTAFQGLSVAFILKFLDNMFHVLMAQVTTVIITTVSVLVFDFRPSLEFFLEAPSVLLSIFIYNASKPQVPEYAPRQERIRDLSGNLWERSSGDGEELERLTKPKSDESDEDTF
UniProt P09131: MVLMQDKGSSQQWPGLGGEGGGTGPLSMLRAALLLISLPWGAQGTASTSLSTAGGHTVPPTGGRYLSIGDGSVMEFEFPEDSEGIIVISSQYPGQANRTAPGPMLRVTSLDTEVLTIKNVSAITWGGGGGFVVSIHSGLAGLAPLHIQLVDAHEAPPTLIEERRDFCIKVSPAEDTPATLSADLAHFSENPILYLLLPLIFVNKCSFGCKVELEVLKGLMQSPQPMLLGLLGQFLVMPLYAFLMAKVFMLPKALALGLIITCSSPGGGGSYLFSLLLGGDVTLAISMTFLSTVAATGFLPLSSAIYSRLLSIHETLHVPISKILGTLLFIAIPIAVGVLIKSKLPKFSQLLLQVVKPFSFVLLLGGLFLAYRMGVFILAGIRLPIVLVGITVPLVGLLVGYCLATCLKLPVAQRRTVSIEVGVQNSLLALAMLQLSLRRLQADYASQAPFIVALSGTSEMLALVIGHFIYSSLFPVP
UniProt Q96GZ6: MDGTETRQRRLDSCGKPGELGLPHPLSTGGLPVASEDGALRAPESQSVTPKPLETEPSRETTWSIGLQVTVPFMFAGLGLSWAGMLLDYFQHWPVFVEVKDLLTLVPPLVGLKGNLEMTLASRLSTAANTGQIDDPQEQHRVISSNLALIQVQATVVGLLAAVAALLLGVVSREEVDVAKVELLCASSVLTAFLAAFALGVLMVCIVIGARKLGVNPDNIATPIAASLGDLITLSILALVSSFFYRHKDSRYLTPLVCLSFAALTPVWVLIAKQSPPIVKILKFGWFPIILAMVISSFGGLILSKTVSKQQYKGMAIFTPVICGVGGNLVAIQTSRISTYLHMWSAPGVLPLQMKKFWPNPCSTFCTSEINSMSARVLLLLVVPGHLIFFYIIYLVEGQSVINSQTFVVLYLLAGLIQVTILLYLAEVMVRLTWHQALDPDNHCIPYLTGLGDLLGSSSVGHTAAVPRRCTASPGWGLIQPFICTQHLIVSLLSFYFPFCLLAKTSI
UniProt P48751: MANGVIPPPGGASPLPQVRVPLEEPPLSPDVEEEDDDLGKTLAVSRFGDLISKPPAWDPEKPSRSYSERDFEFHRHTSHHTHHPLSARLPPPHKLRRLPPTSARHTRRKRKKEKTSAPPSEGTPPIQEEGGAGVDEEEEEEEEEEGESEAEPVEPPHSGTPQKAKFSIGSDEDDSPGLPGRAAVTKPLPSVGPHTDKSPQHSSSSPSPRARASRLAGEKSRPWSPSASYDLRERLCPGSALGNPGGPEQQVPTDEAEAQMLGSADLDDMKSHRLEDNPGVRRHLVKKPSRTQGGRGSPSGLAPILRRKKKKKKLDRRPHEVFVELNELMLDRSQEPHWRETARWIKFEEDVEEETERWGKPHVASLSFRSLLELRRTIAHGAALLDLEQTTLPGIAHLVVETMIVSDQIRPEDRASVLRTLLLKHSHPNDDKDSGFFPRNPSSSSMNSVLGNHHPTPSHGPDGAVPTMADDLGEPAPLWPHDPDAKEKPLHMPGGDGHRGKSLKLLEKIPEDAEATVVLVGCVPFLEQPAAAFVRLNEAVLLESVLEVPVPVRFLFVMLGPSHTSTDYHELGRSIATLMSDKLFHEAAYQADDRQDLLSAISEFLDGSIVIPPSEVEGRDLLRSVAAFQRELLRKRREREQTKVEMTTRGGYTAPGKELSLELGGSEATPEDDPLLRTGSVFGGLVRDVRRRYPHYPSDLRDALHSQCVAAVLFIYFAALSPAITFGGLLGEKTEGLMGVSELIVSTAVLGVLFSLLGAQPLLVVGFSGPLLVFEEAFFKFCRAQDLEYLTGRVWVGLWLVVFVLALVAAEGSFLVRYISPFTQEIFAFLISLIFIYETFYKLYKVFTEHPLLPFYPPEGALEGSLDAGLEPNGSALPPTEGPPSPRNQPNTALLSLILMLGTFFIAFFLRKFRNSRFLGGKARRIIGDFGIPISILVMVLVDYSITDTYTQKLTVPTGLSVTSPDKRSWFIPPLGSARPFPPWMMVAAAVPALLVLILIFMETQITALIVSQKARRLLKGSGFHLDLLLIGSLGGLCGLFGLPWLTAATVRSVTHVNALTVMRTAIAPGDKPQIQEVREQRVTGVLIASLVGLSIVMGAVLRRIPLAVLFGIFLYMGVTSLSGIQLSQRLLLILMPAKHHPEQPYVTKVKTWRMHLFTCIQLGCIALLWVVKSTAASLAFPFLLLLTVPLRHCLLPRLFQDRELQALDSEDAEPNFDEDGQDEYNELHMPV
UniProt Q9NQQ7: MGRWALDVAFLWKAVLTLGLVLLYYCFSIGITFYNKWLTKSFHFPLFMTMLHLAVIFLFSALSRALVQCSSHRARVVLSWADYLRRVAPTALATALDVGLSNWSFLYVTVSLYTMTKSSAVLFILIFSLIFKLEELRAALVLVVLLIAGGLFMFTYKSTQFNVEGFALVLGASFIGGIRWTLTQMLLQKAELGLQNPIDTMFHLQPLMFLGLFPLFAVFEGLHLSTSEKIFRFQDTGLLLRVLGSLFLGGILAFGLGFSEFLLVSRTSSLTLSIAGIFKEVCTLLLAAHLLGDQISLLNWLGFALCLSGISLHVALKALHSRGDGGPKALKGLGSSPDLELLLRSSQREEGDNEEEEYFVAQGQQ
UniProt P43003, whole entry, looked up: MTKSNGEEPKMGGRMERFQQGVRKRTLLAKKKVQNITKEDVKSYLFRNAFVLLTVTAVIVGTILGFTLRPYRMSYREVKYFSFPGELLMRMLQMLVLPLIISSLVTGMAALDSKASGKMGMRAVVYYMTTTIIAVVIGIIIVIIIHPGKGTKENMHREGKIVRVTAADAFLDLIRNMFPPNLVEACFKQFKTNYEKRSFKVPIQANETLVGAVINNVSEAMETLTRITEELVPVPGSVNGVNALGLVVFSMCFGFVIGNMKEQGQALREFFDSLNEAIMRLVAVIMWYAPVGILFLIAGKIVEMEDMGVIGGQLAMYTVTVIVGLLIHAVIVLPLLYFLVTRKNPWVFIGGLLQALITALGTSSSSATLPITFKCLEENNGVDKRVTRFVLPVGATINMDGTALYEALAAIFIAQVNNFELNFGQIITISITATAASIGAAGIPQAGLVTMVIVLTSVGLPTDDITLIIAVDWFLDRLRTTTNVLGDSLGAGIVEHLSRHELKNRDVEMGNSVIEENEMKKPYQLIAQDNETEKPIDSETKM

Some of the results follow.

Common to all, as to test: log2 fold change, soluble protein after heating vs DMSO (PISA); higher = thermal stabilisation; K562 cells, 10 uM, 30 min; active = over 0.2 and 3.5 SD of the protein, either way, in both replicates (recomputed)
Compound in one assay: CN1CCN(CCOc2cc(OC3CCOCC3)c3c(Nc4c(Cl)ccc5c4OCO5)ncnc3c2)CC1 [saracatinib]
The method in brief:
(§1)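 K562 cells at 2×10^6 cells/mL were treated with 10 μM compound for 30 min. Aliquots were heated for 3 min across 48°C-58°C, pooled, and extracted in PBS with 0.5% NP-40 at 4°C; soluble protein was the supernatant after 21,000xg for 90 min. Soluble protein was quantified by TMTpro 16plex LC-MS/MS with channel sums equalised, and reported as log2 fold change in thermal stability against DMSO controls, with values from duplicates.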

Compound in a further assay: CN1CC[C@H](c2c(O)cc(O)c3c(=O)cc(-c4ccccc4Cl)oc23)[C@H](O)C1 [alvocidib]
The method in brief:
as §1

Compound in assay [1]: CNc1nc(-c2ccc3c(N)n[nH]c3c2)cc(N2C[C@@H](C(=O)NC3CCCCC3)CC[C@H]2C)n1
The method in brief: as §1

Compound in the next assay: CO[C@H]1C[C@@H]2CC[C@@H](C)[C@@](O)(O2)C(=O)C(=O)N2CCCC[C@H]2C(=O)O[C@H]([C@H](C)C[C@@H]2CC[C@H](n3cnnn3)[C@H](OC)C2)CC(=O)[C@H](C)/C=C(\C)[C@@H](O)[C@@H](OC)C(=O)[C@H](C)C[C@H](C)/C=C/C=C/C=C/1C [zotarolimus]
The method in brief:
as §1

Compound in another assay: COc1cc(Nc2ncc3c(n2)-c2ccc(Cl)cc2C(c2c(F)cccc2OC)=NC3)ccc1C(=O)O [alisertib]
The method in brief:
as §1

Compound in assay [2]: COc1cc2nc(-c3cc(F)ccc3O)nc(N[C@@H]3CNC[C@H]3C(C)(C)O)c2cc1OC
The method in brief:
as §1

Compound in assay [3]: COc1cccc2cc(-c3nc([C@H]4CC[C@H](C(=O)O)CC4)n4ncnc(N)c34)[nH]c12
The method in brief: as §1

Compound in a further assay: CS(=O)(=O)CCNCc1ccc(-c2ccc3ncnc(Nc4ccc(OCc5cccc(F)c5)c(Cl)c4)c3c2)o1 [lapatinib]
The method in brief:
as §1

Compound in the next assay: CN1CCN(c2nc(C3=C(c4c[nH]c5ccccc45)C(=O)NC3=O)c3ccccc3n2)CC1 [sotrastaurin]
The method in brief: as §1

Compound in assay [4]: COC1=CC=C(C=C1)CN2C=CC3=C2C=C(C=C3)C(=O)NO
The method in brief:
as §1

Compound in the next assay: CON(C)C(=O)N1N=C(c2cc(F)ccc2F)S[C@@]1(CCCN)c1ccccc1 [filanesib]
The method in brief: as §1

Compound in the next assay: COc1cc2ncnc(Nc3ccc(F)c(Cl)c3)c2cc1OCCCN1CCOCC1 [gefitinib]
The method in brief:
as §1

Compound in the next assay: CS(=O)(=O)N1CCN(Cc2cc3nc(-c4cccc5[nH]ncc45)nc(N4CCOCC4)c3s2)CC1 [pictilisib]
The method in brief:
as §1

Compound in a further assay: CN1CCc2c(c3ccccc3n2Cc2ccc(C(=O)NO)cc2)C1 [Tubastatin A]
The method in brief:
as §1

Compound in assay [5]: CNC(=O)C1=CC=CC=C1NC2=NC(=NC=C2Cl)NC3=C(C=C(C=C3)N4CCOCC4)OC
The method in brief: as §1

Compound in another assay: CNC(=O)c1ccc(Nc2ncc(C(F)(F)F)c(NCc3nccnc3N(C)S(C)(=O)=O)n2)cc1 [defactinib]
The method in brief:
as §1

Compound in assay [6]: COC(=O)[C@H](CCSC)NC(=O)C1=C(C=C(C=C1)NC[C@H](CS)N)C2=CC=CC=C2
The method in brief:
as §1

Compound in another assay: CNCc1ccc(-c2[nH]c3cc(F)cc4c3c2CCNC4=O)cc1 [rucaparib]
The method in brief: as §1

Compound in a further assay: COC(=O)N[C@@H](C)CNc1nccc(-c2cn(C(C)C)nc2-c2cc(Cl)cc(NS(C)(=O)=O)c2F)n1 [encorafenib]
The method in brief:
as §1

Compound in a further assay: COc1cc(C(=O)O)ccc1NC(=O)[C@@H]1N[C@@H](CC(C)(C)C)[C@](C#N)(c2ccc(Cl)cc2F)[C@H]1c1cccc(Cl)c1F [idasanutlin]
The method in brief:
as §1

As for SLC6A19 (UniProt Q695T7), the log2 fold change was inactive: -0.04 with saracatinib; inactive: -0.105 with alvocidib; inactive: -0.099 in [1]; inactive: -0.059 with zotarolimus; inactive: -0.146 with alisertib; inactive: -0.216 in assay [2]. In addition, the log2 fold change was inactive: 0.156 in [3] and inactive: 0.05 with lapatinib.

Turning to SLC41A1 (UniProt Q8IVJ1), the log2 fold change with sotrastaurin is inactive: -0.036; in assay [4], inactive: 0.541; in the assay with filanesib it was inactive: -0.256; with alisertib, inactive: -0.029; in [2] it was inactive: -0.289; with gefitinib, inactive: 0.208. The values for the log2 fold change (in assay [3]; with lapatinib; with pictilisib) were inactive: 0.011, inactive: 0.427 and inactive: -0.119, respectively.

In the case of SLC27A6 (UniProt Q9Y2P4), the log2 fold change with alvocidib is inactive: -0.311; with Tubastatin A, inactive: 0.197; in assay [5] it was inactive: 0.104; with defactinib, inactive: 0; in assay [6], inactive: -0.247; in the assay with zotarolimus, inactive: -0.02. Moreover, the log2 fold change with alisertib was inactive: -0.072; with gefitinib, inactive: 0.001; in assay [3] it was inactive: 0.008.

With SLC23A2 (UniProt Q9UGH3), the log2 fold change in the assay with sotrastaurin is inactive: 0.165; in the assay with Tubastatin A, inactive: 0.101; in assay [5] it was inactive: -0.024; in assay [4], inactive: -0.112; with filanesib, inactive: 0.105; with gefitinib, inactive: -0.13.

In the case of SLC35A3 isoform 2 (UniProt Q9Y2D2), the log2 fold change was inactive: -0.019 with sotrastaurin; inactive: -0.129 in assay [5]; inactive: -0.012 in the assay with rucaparib; inactive: 0.005 in the assay with encorafenib; inactive: -0.028 in assay [4]; inactive: 0.029 in the assay with filanesib. Also, the log2 fold change in the assay with idasanutlin was inactive: -0.036; with alisertib, inactive: -0.055; in assay [2], inactive: 0.027; in the assay with gefitinib, inactive: 0.023; in [3], inactive: 0.02; with lapatinib, inactive: -0.166. For the same target, the log2 fold change in the assay with pictilisib was inactive: 0.173.

With SLC25A29 (UniProt Q8N8R3), the log2 fold change was inactive: 0.267 with saracatinib; inactive: 0.066 with Tubastatin A; inactive: -0.099 in assay [5]; inactive: -0.128 in the assay with rucaparib; inactive: 0.001 in assay [1]; inactive: 0.134 with encorafenib. Moreover, the figures for the log2 fold change (in assay [4]; in assay [2]; with lapatinib) were inactive: -0.022, inactive: -0.108 and inactive: 0.191, respectively.

Consider SLC35D1 (UniProt Q9NTN3), for which the log2 fold change with alvocidib was inactive: 0.111; in the assay with Tubastatin A it was inactive: -0.148; with defactinib it was inactive: -0.044; in assay [6], inactive: -0.094; in the assay with zotarolimus, inactive: 0.051; in the assay with idasanutlin, inactive: -0.105. Besides, the log2 fold change was inactive: 0.066 in assay [2] and inactive: 0.112 in the assay with lapatinib.

For the target SLC36A4 (UniProt Q6YBV0), the log2 fold change in [5] is inactive: -0.078; with alisertib, inactive: 0.068; in assay [3], inactive: 0.215.

Take SLC36A1 (UniProt Q7Z2H8): the log2 fold change is inactive: 0.106 with saracatinib; inactive: -0.124 in [5]; inactive: 0.257 in assay [1]; inactive: 0.094 in [4]; inactive: -0.191 in the assay with alisertib; inactive: -0.087 in assay [3].

As for SLC35A5 (UniProt Q9BS91), the log2 fold change was inactive: 0.024 in the assay with saracatinib; inactive: 0.076 with alvocidib; inactive: 0.085 in the assay with Tubastatin A; inactive: -0.035 in assay [5]; inactive: -0.161 in assay [1]; inactive: -0.031 in the assay with zotarolimus. The log2 fold change in the assay with idasanutlin is inactive: -0.104.

With SLC46A1 (UniProt Q96NT5), the log2 fold change with Tubastatin A is inactive: 0.067; in [5], inactive: 0.085; with defactinib, inactive: 0.034; in the assay with rucaparib, inactive: -0.081; with encorafenib, inactive: -0.051; in assay [6], inactive: -0.011. Also, the log2 fold change was inactive: -0.095 with zotarolimus, inactive: -0.107 with idasanutlin and inactive: 0.061 in the assay with pictilisib.

On to SLC10A3 (UniProt P09131), for which the log2 fold change is inactive: -0.078 with Tubastatin A; inactive: -0.095 in assay [5]; inactive: 0.019 in the assay with alisertib; inactive: 0.004 with gefitinib; inactive: -0.204 in [3].

For the target SLC48A1 (UniProt Q6P1K1), the log2 fold change with sotrastaurin was inactive: -0.087; in assay [5] it was inactive: -0.075; with rucaparib it was inactive: -0.161; with encorafenib, inactive: 0.103; in assay [4], inactive: 0.093; with filanesib, inactive: -0.074. Moreover, the log2 fold change with gefitinib is inactive: 0.1.

For the target SLC41A3 isoform 9 (UniProt Q96GZ6), the log2 fold change with sotrastaurin was inactive: 0.134; with Tubastatin A it was inactive: -0.124; in assay [5] it was inactive: 0.056; in the assay with rucaparib, inactive: -0.188; with encorafenib it was inactive: 0.029; in assay [4] it was inactive: -0.011. In addition, the log2 fold change with filanesib is inactive: -0.044; in the assay with idasanutlin, inactive: 0.112; with alisertib it was inactive: 0.069; with gefitinib, inactive: -0.037; in assay [3] it was inactive: 0.246; with pictilisib it was inactive: 0.097.

Regarding SLC4A3 isoform 3 (UniProt P48751), the log2 fold change with idasanutlin is inactive: -0.283; with alisertib, inactive: -0.009; in the assay with gefitinib it was inactive: 0.006; in assay [3], inactive: 0.

Regarding SLC35C2 isoform 3 (UniProt Q9NQQ7), the log2 fold change in the assay with alvocidib was inactive: 0.095; in assay [5], inactive: -0.086; with rucaparib it was inactive: -0.08; in the assay with encorafenib, inactive: -0.086; in assay [4] it was inactive: -0.103; with zotarolimus, inactive: -0.014. The log2 fold change is inactive: 0.017 with idasanutlin and inactive: -0.085 with gefitinib.

Consider SLC25A28 (UniProt Q96A46), for which the log2 fold change was inactive: 0.131 in the assay with sotrastaurin; inactive: -0.101 with filanesib; inactive: 0.069 in assay [2]; inactive: -0.073 with gefitinib; inactive: -0.076 in the assay with lapatinib.

Turning to SLC1A3 (UniProt P43003), the log2 fold change with saracatinib was inactive: 0.277; with Tubastatin A, inactive: -0.157; in assay [5], inactive: -0.034; with defactinib, inactive: -0.013; with rucaparib, inactive: 0.027; in assay [1], active: 0.481. Moreover, the log2 fold change is inactive: 0.072 in the assay with encorafenib; inactive: 0.106 in assay [6]; inactive: -0.097 in the assay with zotarolimus; inactive: 0 in the assay with idasanutlin; inactive: 0.017 with alisertib; inactive: 0.118 in [2]. Also, the log2 fold change with gefitinib is inactive: -0.023; in assay [3], inactive: 0.012; in the assay with lapatinib, inactive: -0.03; with pictilisib, inactive: 0.02.
